Laboratory results reported in article PMC8435237, “Overexpressing the N‐terminus of CATALASE2 enhances plant jasmonic acid biosynthesis and resistance to necrotrophic pathogen Botrytis cinerea B05.10” (Molecular Plant Pathology, 2021).
These are yes or no findings as the source states them, for the method shown. For part of these data: Binding seen in cells or lysates may run through a third protein. Some results given as binding are weak or reduced against the parent protein; the word gives no strength. For part of these data: Sequences can lack the tags named with a protein.

Experiments:
[1] = molecular target: T1, CAT2-Y348V, in pGBKT7 (Arabidopsis thaliana) (UniProt P25819); test: two-hybrid; yeast two-hybrid; CAT2 forms in pGBKT7, ACX2 and ACX3 in pGADT7; growth of yeast as in Yuan et al., 2017
T1 sequence: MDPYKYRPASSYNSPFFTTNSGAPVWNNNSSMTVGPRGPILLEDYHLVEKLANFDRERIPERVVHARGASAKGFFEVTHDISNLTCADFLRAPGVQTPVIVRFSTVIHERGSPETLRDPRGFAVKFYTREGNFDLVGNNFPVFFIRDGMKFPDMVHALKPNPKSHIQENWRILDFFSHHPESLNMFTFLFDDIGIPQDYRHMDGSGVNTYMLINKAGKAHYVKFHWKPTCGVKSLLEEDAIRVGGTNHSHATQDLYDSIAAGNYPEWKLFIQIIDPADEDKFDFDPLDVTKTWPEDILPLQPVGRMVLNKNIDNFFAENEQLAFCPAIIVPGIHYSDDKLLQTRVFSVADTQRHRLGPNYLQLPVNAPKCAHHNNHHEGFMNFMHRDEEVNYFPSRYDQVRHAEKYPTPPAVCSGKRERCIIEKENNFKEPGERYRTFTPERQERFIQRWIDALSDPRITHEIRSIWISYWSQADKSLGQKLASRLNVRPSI

[2] = molecular target: T2, CAT2-H65A, in pGBKT7 (Arabidopsis thaliana) (UniProt P25819); test: as above
T2 sequence: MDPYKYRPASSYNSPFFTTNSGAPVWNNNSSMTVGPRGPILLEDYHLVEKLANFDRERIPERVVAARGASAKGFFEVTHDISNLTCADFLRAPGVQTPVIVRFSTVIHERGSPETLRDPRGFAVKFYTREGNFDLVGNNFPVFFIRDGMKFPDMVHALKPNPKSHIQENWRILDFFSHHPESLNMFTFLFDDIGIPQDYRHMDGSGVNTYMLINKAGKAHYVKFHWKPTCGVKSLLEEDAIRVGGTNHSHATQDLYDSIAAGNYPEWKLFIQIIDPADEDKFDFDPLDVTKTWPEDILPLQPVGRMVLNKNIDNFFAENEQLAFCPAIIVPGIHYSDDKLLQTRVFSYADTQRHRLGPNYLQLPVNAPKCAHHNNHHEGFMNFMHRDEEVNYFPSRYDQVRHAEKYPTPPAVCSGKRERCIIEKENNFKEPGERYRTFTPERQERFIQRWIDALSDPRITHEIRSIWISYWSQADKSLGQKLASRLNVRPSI

[3] = molecular target: T3, CAT2-V106A, in pGBKT7 (Arabidopsis thaliana) (UniProt P25819); test: as above
T3 sequence: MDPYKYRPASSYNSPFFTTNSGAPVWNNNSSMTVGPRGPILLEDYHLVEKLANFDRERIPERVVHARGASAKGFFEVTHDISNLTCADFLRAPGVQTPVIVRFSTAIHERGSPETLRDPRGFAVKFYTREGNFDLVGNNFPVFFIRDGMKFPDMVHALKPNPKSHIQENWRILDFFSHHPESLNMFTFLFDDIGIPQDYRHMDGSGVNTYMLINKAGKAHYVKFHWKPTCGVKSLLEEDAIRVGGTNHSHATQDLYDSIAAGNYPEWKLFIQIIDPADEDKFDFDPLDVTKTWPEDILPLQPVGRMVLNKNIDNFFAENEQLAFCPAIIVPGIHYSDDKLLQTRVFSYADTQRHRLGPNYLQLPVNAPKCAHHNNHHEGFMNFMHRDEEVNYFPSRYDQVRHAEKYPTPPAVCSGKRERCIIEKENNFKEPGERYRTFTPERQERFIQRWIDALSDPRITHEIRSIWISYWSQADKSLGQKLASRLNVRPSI

[4] = molecular target: T4, CAT2-F143V, in pGBKT7 (Arabidopsis thaliana) (UniProt P25819); test: as above
T4 sequence: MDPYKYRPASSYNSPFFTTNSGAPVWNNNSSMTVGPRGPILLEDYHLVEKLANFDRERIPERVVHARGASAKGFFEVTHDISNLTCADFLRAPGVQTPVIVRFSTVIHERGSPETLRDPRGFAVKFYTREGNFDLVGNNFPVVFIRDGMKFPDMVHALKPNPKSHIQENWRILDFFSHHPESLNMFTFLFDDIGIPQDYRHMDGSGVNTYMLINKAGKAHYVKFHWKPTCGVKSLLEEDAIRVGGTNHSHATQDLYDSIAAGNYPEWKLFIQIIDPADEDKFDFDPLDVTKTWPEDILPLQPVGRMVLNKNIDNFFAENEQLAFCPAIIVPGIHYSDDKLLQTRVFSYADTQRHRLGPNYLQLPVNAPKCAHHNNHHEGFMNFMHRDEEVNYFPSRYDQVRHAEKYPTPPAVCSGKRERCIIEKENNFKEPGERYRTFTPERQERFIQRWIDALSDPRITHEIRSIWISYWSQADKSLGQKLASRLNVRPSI

[5] = molecular target: T5, CATALASE2 (CAT2), full length, in pGBKT7 (Arabidopsis thaliana) (UniProt P25819); test: as above
T5 sequence: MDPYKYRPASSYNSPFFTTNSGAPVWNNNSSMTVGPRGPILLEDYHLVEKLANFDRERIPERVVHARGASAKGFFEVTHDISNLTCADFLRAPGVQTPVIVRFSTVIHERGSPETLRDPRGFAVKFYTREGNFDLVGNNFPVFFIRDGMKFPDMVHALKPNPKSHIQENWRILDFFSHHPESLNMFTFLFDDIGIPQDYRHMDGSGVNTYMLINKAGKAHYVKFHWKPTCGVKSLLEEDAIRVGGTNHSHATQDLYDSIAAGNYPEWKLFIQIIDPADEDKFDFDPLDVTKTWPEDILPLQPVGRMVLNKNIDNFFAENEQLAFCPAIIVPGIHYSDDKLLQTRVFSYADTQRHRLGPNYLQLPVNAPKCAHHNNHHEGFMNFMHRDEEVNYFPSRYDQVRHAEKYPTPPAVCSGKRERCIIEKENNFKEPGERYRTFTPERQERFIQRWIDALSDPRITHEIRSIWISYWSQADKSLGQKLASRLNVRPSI

[6] = molecular target: T6, nYFP-tagged CAT2 (full length), BiFC construct in pSP-YNE (Arabidopsis) (UniProt P25819); test: split reporter; BiFC in N. benthamiana leaves; CAT2 forms in pSP-YNE (nYFP), ACX2 and ACX3 in pSP-YCE (cYFP); confocal microscopy three days after infiltration; mCherry-SKL marks the peroxisomes
T6 sequence: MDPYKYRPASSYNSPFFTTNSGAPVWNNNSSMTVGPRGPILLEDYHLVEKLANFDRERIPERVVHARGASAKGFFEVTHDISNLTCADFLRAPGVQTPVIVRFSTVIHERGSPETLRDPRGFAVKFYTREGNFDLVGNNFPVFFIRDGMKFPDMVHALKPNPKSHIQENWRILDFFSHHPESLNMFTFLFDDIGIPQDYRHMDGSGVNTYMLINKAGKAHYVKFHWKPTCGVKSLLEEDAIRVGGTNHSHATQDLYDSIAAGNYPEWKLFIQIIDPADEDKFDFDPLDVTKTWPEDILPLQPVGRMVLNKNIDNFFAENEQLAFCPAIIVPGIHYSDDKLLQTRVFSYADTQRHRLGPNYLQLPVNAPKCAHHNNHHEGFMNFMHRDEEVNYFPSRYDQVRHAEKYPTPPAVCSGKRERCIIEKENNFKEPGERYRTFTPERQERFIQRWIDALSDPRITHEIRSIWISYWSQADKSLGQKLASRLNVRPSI

Measured: binding

B1: acyl-CoA oxidase 3 (ACX3), in pGADT7 (enzyme, UniProt P0CZ23 1-675)
chain: MSDNRALRRAHVLANHILQSNPPSSNPSLSRELCLQYSPPELNESYGFDVKEMRKLLDGHNVVDRDWIYGLMMQSNLFNRKERGGKIFVSPDYNQTMEQQREITMKRIWYLLENGVFKGWLTETGPEAELRKLALLEVCGIYDHSVSIKVGVHFFLWGNAVKFFGTKRHHEKWLKNTEDYVVKGCFAMTELGHGSNVRGIETVTTYDPKTEEFVINTPCESAQKYWIGGAANHATHTIVFSQLHINGTNQGVHAFIAQIRDQDGSICPNIRIADCGHKIGLNGVDNGRIWFDNLRIPRENLLNAVADVSSDGKYVSSIKDPDQRFGAFMAPLTSGRVTIASSAIYSAKVGLSIAIRYSLSRRAFSVTANGPEVLLLDYPSHQRRLLPLLAKTYAMSFAANELKMIYVKRTPETNKAIHVVSSGFKAVLTWHNMHTLQECREAVGGQGVKTENLVGQLKGEFDVQTTFEGDNNVLMQQVSKALFAEYVSCKKRNKPFKGLGLEHMNSPRPVLPTQLTSSTLRCSQFQTNVFCLRERDLLEQFTSEVAQLQGRGESREFSFLLSHQLAEDLGKAFTEKAILQTILDAEAKLPTGSVKDVLGLVRSMYALISLEEDPSLLRYGYLSQDNVGDVRREVSKLCGELRPHALALVTSFGIPDSFLSPIAFNWVEANAWSSV
binds: [1] | [2] | [3] | [4] | [5]

B2: acyl-CoA oxidase 2 (ACX2), in pGADT7 (enzyme, UniProt O65201 1-692)
chain: MESRREKNPMTEEESDGLIAARRIQRLSLHLSPSLTPSPSLPLVQTETCSARSKKLDVNGEALSLYMRGKHIDIQEKIFDFFNSRPDLQTPIEISKDDHRELCMNQLIGLVREAGVRPFRYVADDPEKYFAIMEAVGSVDMSLGIKMGVQYSLWGGSVINLGTKKHRDKYFDGIDNLDYTGCFAMTELHHGSNVQGLQTTATFDPLKDEFVIDTPNDGAIKWWIGNAAVHGKFATVFARLILPTHDSKGVSDMGVHAFIVPIRDMKTHQTLPGVEIQDCGHKVGLNGVDNGALRFRSVRIPRDNLLNRFGDVSRDGTYTSSLPTINKRFGATLGELVGGRVGLAYASVGVLKISATIAIRYSLLRQQFGPPKQPEVSILDYQSQQHKLMPMLASTYAYHFATVYLVEKYSEMKKTHDEQLVADVHALSAGLKSYVTSYTAKALSVCREACGGHGYAAVNRFGSLRNDHDIFQTFEGDNTVLLQQVAADLLKRYKEKFQGGTLTVTWSYLRESMNTYLSQPNPVTARWEGEDHLRDPKFQLDAFRYRTSRLLQNVAARLQKHSKTLGGFGAWNRCLNHLLTLAESHIETVILAKFIEAVKNCPDPSAKAALKLACDLYALDRIWKDIGTYRNVDYVAPNKAKAIHKLTEYLSFQVRNVAKELVDAFELPDHVTRAPIAMQSDAYSQYTQVVGF
binds: [1] | [2] | [3] | [4] | [5]

B3: cYFP-tagged ACX3, BiFC construct in pSP-YCE (enzyme, UniProt P0CZ23 35-675)
chain: LQYSPPELNESYGFDVKEMRKLLDGHNVVDRDWIYGLMMQSNLFNRKERGGKIFVSPDYNQTMEQQREITMKRIWYLLENGVFKGWLTETGPEAELRKLALLEVCGIYDHSVSIKVGVHFFLWGNAVKFFGTKRHHEKWLKNTEDYVVKGCFAMTELGHGSNVRGIETVTTYDPKTEEFVINTPCESAQKYWIGGAANHATHTIVFSQLHINGTNQGVHAFIAQIRDQDGSICPNIRIADCGHKIGLNGVDNGRIWFDNLRIPRENLLNAVADVSSDGKYVSSIKDPDQRFGAFMAPLTSGRVTIASSAIYSAKVGLSIAIRYSLSRRAFSVTANGPEVLLLDYPSHQRRLLPLLAKTYAMSFAANELKMIYVKRTPETNKAIHVVSSGFKAVLTWHNMHTLQECREAVGGQGVKTENLVGQLKGEFDVQTTFEGDNNVLMQQVSKALFAEYVSCKKRNKPFKGLGLEHMNSPRPVLPTQLTSSTLRCSQFQTNVFCLRERDLLEQFTSEVAQLQGRGESREFSFLLSHQLAEDLGKAFTEKAILQTILDAEAKLPTGSVKDVLGLVRSMYALISLEEDPSLLRYGYLSQDNVGDVRREVSKLCGELRPHALALVTSFGIPDSFLSPIAFNWVEANAWSSV
binds: [6]

B4: cYFP-tagged ACX2, BiFC construct in pSP-YCE (enzyme, UniProt O65201 50-692)
chain: SARSKKLDVNGEALSLYMRGKHIDIQEKIFDFFNSRPDLQTPIEISKDDHRELCMNQLIGLVREAGVRPFRYVADDPEKYFAIMEAVGSVDMSLGIKMGVQYSLWGGSVINLGTKKHRDKYFDGIDNLDYTGCFAMTELHHGSNVQGLQTTATFDPLKDEFVIDTPNDGAIKWWIGNAAVHGKFATVFARLILPTHDSKGVSDMGVHAFIVPIRDMKTHQTLPGVEIQDCGHKVGLNGVDNGALRFRSVRIPRDNLLNRFGDVSRDGTYTSSLPTINKRFGATLGELVGGRVGLAYASVGVLKISATIAIRYSLLRQQFGPPKQPEVSILDYQSQQHKLMPMLASTYAYHFATVYLVEKYSEMKKTHDEQLVADVHALSAGLKSYVTSYTAKALSVCREACGGHGYAAVNRFGSLRNDHDIFQTFEGDNTVLLQQVAADLLKRYKEKFQGGTLTVTWSYLRESMNTYLSQPNPVTARWEGEDHLRDPKFQLDAFRYRTSRLLQNVAARLQKHSKTLGGFGAWNRCLNHLLTLAESHIETVILAKFIEAVKNCPDPSAKAALKLACDLYALDRIWKDIGTYRNVDYVAPNKAKAIHKLTEYLSFQVRNVAKELVDAFELPDHVTRAPIAMQSDAYSQYTQVVGF
binds: [6]
